Data as given in PubChem BioAssay AID493246 (Drosophila RNAi Screening Center, 2011)
The screen tested about 21,000 reagents; this is a random part of those with a known target gene and a result. In the full data, 429 (2%) were called active. 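Values are raw and not normalised between plates; calls rest on per-plate z-scores that were not deposited.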 The record does not give: the amount of reagent, the time to read-out.

Screen: 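Identify essential fly genes by loss of cell viability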 (primary screen)
Cell system: Drosophila Kc and S2R+ cells
Reagents: long dsRNA against Drosophila genes
Detection: 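Raw, unnormalised count of remaining cells in each well; per-plate z-scores of cell number underlie the calls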
Reading the numbers: Kc cell number and S2R+ cell number: higher = more cells remaining
Hit rule: 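Active when the per-plate z-score of cell number is 3 or more in the direction of fewer cells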

target gene | amplicon | Kc cell number, rep 1 | Kc cell number, rep 2 | S2R+ cell number, rep 1 | S2R+ cell number, rep 2 | Call
CG34024 (retired record) | DRSC13734 | 1.23e6 | 1.52e6 | 1.05e6 | 1.09e6 | inactive
Diedel3 | DRSC19544 | 1.43e6 | 1.51e6 | 1.04e6 | 1.10e6 | inactive
CG15046 | DRSC19622 | 1.80e6 | 1.83e6 | 1.26e6 | 1.44e6 | inactive
Ddx1 | DRSC11862 | 1.53e6 | 1.54e6 | 1.29e6 | 1.31e6 | inactive
Arf6 | DRSC05921 | 1.67e6 | 1.68e6 | 1.39e6 | 1.50e6 | inactive
CG10005 | DRSC14172 | 1.87e6 | 1.88e6 | 1.29e6 | 1.36e6 | inactive
CG7148 | DRSC11802 | 1.59e6 | 1.64e6 | 1.45e6 | 1.36e6 | inactive
adp | DRSC06916 | 1.42e6 | 1.45e6 | 1.28e6 | 1.30e6 | inactive
mGluR | DRSC17215 | 1.66e6 | 1.75e6 | 1.05e6 | 1.15e6 | inactive
kay | DRSC13962 | 1.05e6 | 1.60e6 | 1.07e6 | 1.15e6 | inactive
kay | DRSC15048 | 1.65e6 | 1.66e6 | 7.20e5 | 7.24e5 | active
kay | DRSC16977 | 5.78e5 | – | 7.79e5 | – | inactive
Gmppb | DRSC12169 | 1.62e6 | 1.60e6 | 1.18e6 | 1.24e6 | inactive
CG34267 | DRSC07881 | 1.47e6 | 1.40e6 | 1.02e6 | 1.17e6 | inactive
Tmep | DRSC08215 | 1.31e6 | 1.39e6 | 1.01e6 | 1.06e6 | inactive
CG4615 | DRSC17491 | 1.50e6 | 1.72e6 | 1.00e6 | 1.15e6 | inactive
CG4615 | DRSC18376 | 4.62e5 | – | 6.45e5 | – | inactive
Mics1 | DRSC12537 | 1.41e6 | 1.55e6 | 1.23e6 | 1.31e6 | inactive
Rh5 | DRSC03412 | 1.34e6 | 1.37e6 | 1.10e6 | 1.17e6 | inactive
Eip74EF | DRSC10613 | 2.94e5 | 4.30e5 | 4.28e5 | 5.08e5 | active
Eip74EF | DRSC11160 | 1.40e6 | 1.45e6 | 1.08e6 | 1.16e6 | inactive
CG5770 | DRSC06954 | 1.43e6 | 1.46e6 | 1.15e6 | 1.18e6 | inactive
CG14883 | DRSC15007 | 1.45e6 | 1.56e6 | 1.02e6 | 1.13e6 | inactive
CG32036 | DRSC10362 | 1.42e6 | 1.46e6 | 1.26e6 | 1.04e6 | inactive

Copied from the list:
Mics1 [DRSC12537], Kc cell number, rep 1 = 1.41e6
kay [DRSC16977], Call → inactive
